Source: publication PMC7848731
The exact form of at least one protein or probe is not confirmed. For some assays here: The comparison behind a weaker result is the experiment's own reference, which may not be listed here.

Experiments:
[1] = molecular target: T1, PrpA (UniProt A0A0U3H4C4); experiment: EMSA; settings: EMSA: 0.1 pmol probe in 20 ul, 1x LightShift Binding buffer, 2.5% glycerol, 0.05% NP40, 50 mM added KCl, 5 mM MgCl2, 0.25 ug poly(dI:dC), 25 C 2 h, recombinant protein, residues 1-86, protein details: C-terminal His, probe letters rebuilt from the primers and the genome, part of a longer molecule
[2] = tested on: RepB; experiment: EMSA; settings: EMSA: 0.1 pmol probe in 20 ul, 1x LightShift Binding buffer, 2.5% glycerol, 0.05% NP40, 50 mM added KCl, 5 mM MgCl2, 0.25 ug poly(dI:dC), 25 C 2 h; recombinant protein; residues 1-485; protein details: C-terminal His; label: biotin (EMSA) or FAM (footprinting) on M13F end; probe letters rebuilt from the primers and the genome; part of a longer molecule
[3] = molecular target: PrpA1-54 (UniProt A0A0U3H4C4); experiment: EMSA; settings: EMSA: 0.1 pmol probe in 20 ul, 1x LightShift Binding buffer, 2.5% glycerol, 0.05% NP40, 50 mM added KCl, 5 mM MgCl2, 0.25 ug poly(dI:dC), 25 C 2 h, recombinant protein, residues 1-54, protein details: C-terminal His, label: biotin (EMSA) or FAM (footprinting) on M13F end, probe letters rebuilt from the primers and the genome, part of a longer molecule
[4] = tested on: RepB; experiment: competition EMSA; settings: displaces PrpA at RepB/PrpA >= 1; EMSA: 0.1 pmol probe in 20 ul, 1x LightShift Binding buffer, 2.5% glycerol, 0.05% NP40, 50 mM added KCl, 5 mM MgCl2, 0.25 ug poly(dI:dC), 25 C 2 h; recombinant protein; residues 1-485; protein details: C-terminal His; label: biotin (EMSA) or FAM (footprinting) on M13F end; probe letters rebuilt from the primers and the genome; part of a longer molecule
[5] = molecular target: T1, PrpA; experiment: competition EMSA; settings: displaces RepB at PrpA/RepB >= 1, not effectively at < 1; EMSA: 0.1 pmol probe in 20 ul, 1x LightShift Binding buffer, 2.5% glycerol, 0.05% NP40, 50 mM added KCl, 5 mM MgCl2, 0.25 ug poly(dI:dC), 25 C 2 h; recombinant protein; residues 1-86; protein details: C-terminal His; label: biotin (EMSA) or FAM (footprinting) on M13F end; probe letters rebuilt from the primers and the genome; part of a longer molecule
[6] = tested on: RepB; experiment: DNase I footprinting; settings: 36-bp site; footprinting: 5 pmol FAM probe in 50 ul, same buffer, 25 C 2 h; recombinant protein; residues 1-485; protein details: C-terminal His; label: biotin (EMSA) or FAM (footprinting) on M13F end; probe letters rebuilt from the primers and the genome; part of a longer molecule
[7] = molecular target: T1, PrpA; experiment: DNase I footprinting; settings: footprinting: 5 pmol FAM probe in 50 ul, same buffer, 25 C 2 h, recombinant protein, residues 1-86, protein details: C-terminal His, label: biotin (EMSA) or FAM (footprinting) on M13F end, probe letters rebuilt from the primers and the genome, part of a longer molecule
[8] = label: biotin (EMSA) or FAM (footprinting) on M13F end

| Sequence | binding result ([1]; label: biotin on M13F end) | binding result [2] | binding result [1, 8] | binding result ([3]; as efficient as full-length PrpA) | binding result [4] | binding result [5] | binding result [6] | binding result ([7]; covers iterons 1 and 2) | binding result [3] | binding result ([7]; 30-bp protected region) |
| --- | --- | --- | --- | --- | --- | --- | --- | --- | --- | --- |
| CTAAGGTGTAGTGTTGTACGAATAAGGTGTAGAATTTTACGGGCTAACGTGTATTTTTTTACGGGTGTACCCGAATTATTTCGTACTTTACTACACATTTAACAGTACATAGCTACACATACCCTCGTACAAACCTACACGCAAACCGTACAAAGCTACACTATAGCGCGCCGCGGGCCTACACGATGCCGTACAAAGCTACACCATAGAATTATTATATCTATACGCCCCGGGCACTTACAATTTATAGCACTAGATCGATCTGATCTATATATAGATCTTAACTAATAGATCGATCTGATCGTTATTTTGATTTATTCAAAAGCCCAATGCGTAAAATACTACACAACTCCGCATGTGCTGAACGATCAACAAAGTAAGTACGACCCCCTATTTT (double strand) [mutant ori probe (oriGC)] | binds more weakly | – | – | – | – | – | – | – | – | – |
| CTAAGGTGTAGTGTTGTACGAATAAGGTGTAGAATTTTACGGGCTAACGTGTATTTTTTTACGGGTGTACCCGAATTATTTCGTACTTTACTACACATTTAACAGTACATAGCTACACATACCCTCGTACAAACCTACACGCAAACCGTACAAAGCTACACTATAGCGTATTACAAACCTACACGATGCCGTACAAAGCTACACCATAGAATTATTATATCTATATATTTCAAATACTTACAATTTATAGCACTAGATCGATCTGATCTATATATAGATCTTAACTAATAGATCGATCTGATCGTTATTTTGATTTATTCAAAAGCCCAATGCGTAAAATACTACACAACTCCGCATGTGCTGAACGATCAACAAAGTAAGTACGACCCCCTATTTT (double strand) [pMBL6842 ori probe] | – | binds | binds | binds | binds | binds | binds | binds | – | – |
| CTTTTCAACCCGTTGTTCATTATATCGAATTTGACTTCGACTCAACCGACTTACCGGGCCACGCCGCTGATGTCCTGGCGCCCCATATTACATATCTCACCACGCATCCGAATGAGCGGATCTTAATTCAGGGCGCAGGCGACACGTCGGGTACCTTTGCCTACAATTATCAGCTGGGACTGGCGCGGGCCCGGGCAGTCATGCGTCACCTCACGGATGCCGGCATTGACGCGCAGCGCATTAAAGTCGTGTCTGTGTCTAAGGCCAATGCCCGGCAAAAATCCTACACGCGCACCGCGCACCTGGTTTACTGACGCCTCTGCGCACACCCGTCATGGTAGTTTGTAATGATATGTCTTATAATTGACCAGGTAGACCCTGACAAGAAAAGAGGCTCAGT (double strand) [prpAT promoter probe] | – | – | binds | – | – | – | – | – | binds | binds |
